# PubChem BioAssay AID1224830, NIAID | 2016
# Purpose: 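Host factors that control LPS-induced TNF expression in human macrophages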 (primary screen)
# Cell system: human THP-1 monocytic leukaemia cells, TNF dual-luciferase reporter clone, PMA-differentiated to macrophage-like cells
# Reagent: siRNA pool against human genes, 50 nM
# Timing: LPS for 4 h, given about 3 days after siRNA transfection
# Conditions: bacterial LPS (TLR4 ligand), 10 ng/ml
# Read-out: 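Ratio of firefly to renilla light, scaled to the plate median and expressed as a robust z-score per replicate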
# Direction: TNF reporter robust z-score: higher = stronger TNF reporter response to LPS
# Active means: 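Each well counts as active if its z-score is over 2.8 or under -1.5; controls are left without a call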
# Shown is one part, drawn at random, of about 18,000 reagents. About 2,900 of all reagents (16%) count as active. 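Calls are made per well; low scores hint the gene aids the LPS response, high scores that it dampens it.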 Repeated entries: four replicate wells of each siRNA pool. Reagent sequences are not shown.
gene knocked down,TNF reporter robust z-score,outcome
FOLR1,-0.8,inactive
FOLR1,-0.31,inactive
FOLR1,0.22,inactive
FOLR1,-0.75,inactive
FOXA3,-0.06,inactive
FOXA3,0.11,inactive
FOXA3,0.44,inactive
FOXA3,0.98,inactive
POLR1D,0.43,inactive
POLR1D,-0.02,inactive
POLR1D,0.11,inactive
POLR1D,0.79,inactive
CLDN23,-0.64,inactive
CLDN23,-0.76,inactive
CLDN23,-0.19,inactive
CLDN23,-0.47,inactive
BMP15,2.12,inactive
BMP15,-0.96,inactive
BMP15,1.81,inactive
BMP15,-0.84,inactive
RMDN3,-0.85,inactive
RMDN3,-2.02,active
RMDN3,-1.73,active
RMDN3,0.06,inactive
ARHGEF35,-0.81,inactive
ARHGEF35,-0.46,inactive
ARHGEF35,-1.12,inactive
ARHGEF35,-0.73,inactive
ZNF189,-0.71,inactive
ZNF189,1.49,inactive
ZNF189,-0.69,inactive
ZNF189,0.32,inactive
BPY2,6.43,active
BPY2,1.35,inactive
BPY2,-0.31,inactive
BPY2,0.08,inactive
AATF,1.06,inactive
AATF,1.07,inactive
AATF,0.14,inactive
AATF,1.77,inactive
KCNA2,-1.83,active
KCNA2,0,inactive
KCNA2,-1.76,active
KCNA2,-0.86,inactive
PHLDA3,1.67,inactive
PHLDA3,2.55,inactive
PHLDA3,3.28,active
PHLDA3,2.65,inactive
DDI1,-0.58,inactive
DDI1,-0.43,inactive
DDI1,-0.88,inactive
DDI1,-1.32,inactive
GSTO1,-0.46,inactive
GSTO1,-1.17,inactive
GSTO1,-1.56,active
GSTO1,-1.29,inactive
REC114,-0.11,inactive
REC114,0.56,inactive
REC114,0.09,inactive
REC114,0.59,inactive
TTI2,,inactive
GNAL,1.01,inactive
GNAL,1.15,inactive
GNAL,1.73,inactive
GNAL,1.41,inactive
HMX1,0.31,inactive
HMX1,0.59,inactive
HMX1,-0.47,inactive
HMX1,0.08,inactive
GPC4,0.11,inactive
GPC4,0.29,inactive
GPC4,-0.36,inactive
GPC4,-0.31,inactive
POU4F1,0.78,inactive
POU4F1,0.91,inactive
POU4F1,0.95,inactive
POU4F1,1.06,inactive
CYBRD1,-1.39,inactive
CYBRD1,-2.02,active
CYBRD1,-0.91,inactive
FUT5,-0.55,inactive
FUT5,-0.51,inactive
FUT5,24.4,active
FUT5,-0.4,inactive
NEK1,-0.76,inactive
NEK1,0.35,inactive
NEK1,-1.33,inactive
NEK1,0.37,inactive
CT47A9,-0.16,inactive
CT47A9,2.51,inactive
CT47A9,1.17,inactive
CT47A9,0.89,inactive
ULK4,-1.17,inactive
ULK4,0.03,inactive
ULK4,-1.01,inactive
ULK4,0.92,inactive
SLC12A3,0.04,inactive
SLC12A3,0.23,inactive
SLC12A3,-0.16,inactive
SLC12A3,0.68,inactive
PNKD,2.78,inactive
PNKD,3.89,active
PNKD,1.57,inactive
PNKD,4.21,active
MRNIP,0.04,inactive
MRNIP,0.16,inactive
MRNIP,-0.75,inactive
MRNIP,-0.74,inactive
PRR13,1.37,inactive
PRR13,0.8,inactive
PRR13,1.31,inactive
PRR13,1.52,inactive
REV1,-0.07,inactive
REV1,-0.26,inactive
REV1,0.23,inactive
REV1,0.36,inactive
PAPOLG,2.6,inactive
PAPOLG,2.06,inactive
PAPOLG,1.46,inactive
PAPOLG,1.25,inactive
GNL3L,0.35,inactive
GNL3L,-0.22,inactive
GNL3L,-0.36,inactive
GNL3L,0.53,inactive
FAM234B,1.71,inactive
FAM234B,2.42,inactive
FAM234B,2.4,inactive
FAM234B,2.3,inactive
RANBP10,0.09,inactive
RANBP10,0.08,inactive
RANBP10,0.48,inactive
RANBP10,0.23,inactive
ZNF565,-0.92,inactive
ZNF565,-0.52,inactive
ZNF565,-0.75,inactive
ZNF565,-0.45,inactive
WFIKKN1,0.88,inactive
WFIKKN1,0.06,inactive
WFIKKN1,0.8,inactive
WFIKKN1,0.69,inactive

21 entries from above, set out differently.
gene knocked down | TNF reporter robust z-score | outcome
PNKD | 3.89 | active
PNKD | 1.57 | inactive
PNKD | 4.21 | active
MRNIP | 0.04 | inactive
MRNIP | 0.16 | inactive
MRNIP | -0.75 | inactive
MRNIP | -0.74 | inactive
PRR13 | 1.37 | inactive
PRR13 | 0.8 | inactive
PRR13 | 1.31 | inactive
PRR13 | 1.52 | inactive
REV1 | -0.07 | inactive
REV1 | -0.26 | inactive
REV1 | 0.23 | inactive
REV1 | 0.36 | inactive
PAPOLG | 2.6 | inactive
PAPOLG | 2.06 | inactive
PAPOLG | 1.46 | inactive
PAPOLG | 1.25 | inactive
GNL3L | 0.35 | inactive
GNL3L | -0.22 | inactive
